Assay results: paper PMC7263589, “Integration of phage and yeast display platforms: A reliable and cost effective approach for binning of peptides as displayed on-phage” (PLoS ONE, 2020)
Results are given in words; binding and its absence hold for the method and conditions named. Some results given as binding are weak or reduced against the parent protein; the word gives no strength.

Sequences of proteins named here, by UniProt entry; tags and fusion partners are left off. A change or cut given only in a name is not applied to a line headed by its entry.
UniProt P29459: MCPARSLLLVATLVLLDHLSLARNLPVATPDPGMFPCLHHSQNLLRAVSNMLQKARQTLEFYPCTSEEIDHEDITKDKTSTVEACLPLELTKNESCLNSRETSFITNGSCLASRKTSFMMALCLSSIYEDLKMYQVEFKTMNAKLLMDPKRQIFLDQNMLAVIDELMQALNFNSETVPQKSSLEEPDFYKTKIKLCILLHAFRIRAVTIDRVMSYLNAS

Key:
[1] = target: IL-23 with p19 W26A displayed on yeast (human) (UniProt Q9NPF7+P29460); assay: flow cytometry on cells; peptide-phage added to yeast displaying IL-23 or its p19 alanine variants, 1 h RT, casein in PBS; phage detected with anti-M13-AF647 on V5- and p40-positive cells
[2] = target: IL-23 with p19 L24A displayed on yeast (human) (UniProt Q9NPF7+P29460); assay: as above
[3] = target: IL-23 with p19 W137A displayed on yeast (human) (UniProt Q9NPF7+P29460); assay: as above
[4] = target: wild-type IL-23 displayed on yeast (human) (UniProt Q9NPF7+P29460); assay: as above
IL-23-AVI = target: T1, IL-23-AVI (human, UniProt Q9NPF7 20-189; P29460 23-328); assay: ELISA; titer dependent phage ELISA; phage screened against IL-23, IL-12 and background neutravidin-coated plates; only the target purified
T1 construct: IL-23 p19 subunit, human; IL-12/IL-23 p40 subunit, human; Captured on streptavidin chips and beads, so biotinylation of the Avi tag is implied; also called Avi-tagged IL-23; recombinant IL-23
T1 sequence (looked up) 1: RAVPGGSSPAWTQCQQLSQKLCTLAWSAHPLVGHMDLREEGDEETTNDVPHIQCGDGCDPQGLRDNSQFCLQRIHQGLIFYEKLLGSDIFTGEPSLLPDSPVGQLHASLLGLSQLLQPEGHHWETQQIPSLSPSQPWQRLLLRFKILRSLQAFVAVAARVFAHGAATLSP
T1 sequence (looked up) 2: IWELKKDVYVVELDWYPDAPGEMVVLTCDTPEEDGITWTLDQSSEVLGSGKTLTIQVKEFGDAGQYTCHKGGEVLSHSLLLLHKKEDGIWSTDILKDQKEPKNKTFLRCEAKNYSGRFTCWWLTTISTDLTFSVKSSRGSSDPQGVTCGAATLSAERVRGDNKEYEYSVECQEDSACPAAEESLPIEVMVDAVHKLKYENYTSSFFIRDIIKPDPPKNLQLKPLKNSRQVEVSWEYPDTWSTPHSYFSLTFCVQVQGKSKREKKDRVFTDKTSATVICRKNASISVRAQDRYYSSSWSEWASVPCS

Avi-tagged IL-12 = Avi-tagged IL-12 (UniProt P29459); assay: as above
hu IL-23 (human) [5] = target: T2, hu IL-23 (human) (UniProt Q9NPF7+P29460); assay: HDX-MS; hu IL-23 with peptide at 1:5 molar ratio in 1xPBS pH 7.4, labelling at 15°C; Waters platform, on-line pepsin; both purified
hu IL-23 (human) [6] = target: T2, hu IL-23 (human); assay: crystal structure; co-crystal of IL-23 with peptide 23–652; methods not shown (S1 File); both purified

B1: peptide 23–652 displayed on-phage (peptide)
peptide: DTLTKSFCYFGTWCQMYGST
With B1 the binding [1] was “no binding”, the binding [2] was “binds” and the binding [3] was “binds”. For the same binder, the binding [4] was “binds”, the binding (IL-23-AVI) was “binds” and the binding (Avi-tagged IL-12) was “no binding”.

B2: peptide 23–644 (free, chemically synthesized) (peptide)
peptide: HVPDPCWFGLLCDVLNS
notes: selected from a peptide phage library against IL-23; Two cysteines; also called FGL-containing peptide; source: synthetic peptide (CPC Scientific)
For B2, the binding [1] was “no binding”, the binding [2] was “binds” and the binding [3] was “binds”. The binding [4] was “binds”, the binding (IL-23-AVI) was “binds” and the binding (Avi-tagged IL-12) was “no binding”.

B3: peptide 23–437 (free, chemically synthesized) (peptide)
peptide: FTKEIDSWWLSLMSS
notes: selected from a peptide phage library against IL-23; No cysteines, 15 residues; source: synthetic peptide (CPC Scientific)
For B3, the binding [4] was “binds”.

B4: peptide 23–441 (free, chemically synthesized) (peptide)
peptide: QKITQCVYIIWTYPCLLNDV
notes: selected from a peptide phage library against IL-23; Two cysteines; source: synthetic peptide (CPC Scientific)
For B4, the binding [4] was “binds”.

B5: peptide 23–446 (free, chemically synthesized) (peptide)
peptide: GLRERCVRNYGHEFCQNWYW
notes: as for B4
For B5, the binding [4] was “binds”.

B6: peptide 23–447 displayed on-phage (peptide)
peptide: LECLYYLRWKVCDN
In the case of B6, the binding [4] is reported as “binds”.

B7: peptide 23–652 (free, chemically synthesized) (peptide)
peptide: DTLTKSFCYFGTWCQMYGST
notes: selected from a peptide phage library against IL-23; Two cysteines; also called FGLT-containing peptide; FGL-containing peptide; source: synthetic peptide (CPC Scientific)
With B7 the binding (hu IL-23 (human) [5]) was “binds” and the binding (hu IL-23 (human) [6]) was “binds”.
